These are yes or no findings as the source states them, for the method shown. For part of these data: In cells and extracts the contact can be indirect. Some binding calls cover weakened binding; strength is not graded here.
Legend:
FLAG-STAT3 = FLAG-STAT3 (UniProt P42227); experiment: pull-down; FLAG-STAT3 from 293T cells adsorbed onto anti-FLAG G1 affinity resin, incubated overnight with purified His-Becn1; washed in 1x TBS; FLAG vector as control; both purified
[1] = target: Beclin 1 (Becn1), endogenous in E14.5 fetal liver cells (mouse (endogenous in E14.5 fetal liver cells)) (UniProt O88597); experiment: co-IP; endogenous proteins; lysate of E14.5 fetal liver cells incubated with anti-Becn1, protein A/G agarose; immunoblot with anti-STAT3 and anti-Becn1
Myc-STAT3 = Myc-STAT3 (UniProt P42227); experiment: co-IP; Myc-STAT3 transiently expressed in 293T cells stably overexpressing FLAG-Becn1 (FL, ΔECD or ΔCCD); anti-c-Myc magnetic beads, 4°C overnight; immunoblot

The chains behind the UniProt entries cited, without tags or fusion partners.
UniProt P42227: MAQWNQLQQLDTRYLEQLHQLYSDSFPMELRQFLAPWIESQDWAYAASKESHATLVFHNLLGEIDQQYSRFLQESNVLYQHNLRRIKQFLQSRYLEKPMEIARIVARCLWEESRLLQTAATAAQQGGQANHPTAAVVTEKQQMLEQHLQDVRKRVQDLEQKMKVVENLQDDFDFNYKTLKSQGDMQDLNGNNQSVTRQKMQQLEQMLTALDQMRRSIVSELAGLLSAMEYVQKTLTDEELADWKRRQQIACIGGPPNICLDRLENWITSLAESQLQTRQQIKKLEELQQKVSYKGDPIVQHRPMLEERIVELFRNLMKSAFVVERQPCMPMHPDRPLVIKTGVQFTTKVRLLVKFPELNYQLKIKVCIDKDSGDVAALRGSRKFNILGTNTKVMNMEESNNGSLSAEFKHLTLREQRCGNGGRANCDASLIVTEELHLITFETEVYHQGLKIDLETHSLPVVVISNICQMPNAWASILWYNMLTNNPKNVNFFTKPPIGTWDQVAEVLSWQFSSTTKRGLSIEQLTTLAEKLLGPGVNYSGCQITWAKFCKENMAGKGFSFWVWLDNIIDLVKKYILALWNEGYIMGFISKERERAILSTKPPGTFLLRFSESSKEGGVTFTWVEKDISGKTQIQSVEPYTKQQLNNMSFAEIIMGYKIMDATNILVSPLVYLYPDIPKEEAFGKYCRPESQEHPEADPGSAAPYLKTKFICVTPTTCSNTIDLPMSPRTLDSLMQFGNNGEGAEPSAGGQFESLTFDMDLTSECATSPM
UniProt O88597: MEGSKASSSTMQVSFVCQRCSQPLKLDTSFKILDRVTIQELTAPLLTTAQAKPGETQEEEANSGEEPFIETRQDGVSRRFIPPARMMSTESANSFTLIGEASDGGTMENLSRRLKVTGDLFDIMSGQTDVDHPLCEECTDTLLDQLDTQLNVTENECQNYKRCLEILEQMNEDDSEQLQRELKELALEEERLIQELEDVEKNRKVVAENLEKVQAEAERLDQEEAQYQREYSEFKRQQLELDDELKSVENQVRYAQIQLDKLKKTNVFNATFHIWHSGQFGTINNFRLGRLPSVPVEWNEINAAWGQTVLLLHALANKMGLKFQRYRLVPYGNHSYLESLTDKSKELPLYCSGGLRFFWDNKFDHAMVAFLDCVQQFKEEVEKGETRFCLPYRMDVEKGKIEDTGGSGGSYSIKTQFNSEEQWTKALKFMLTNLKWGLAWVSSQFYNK

With “His-tagged mouse Becn1 protein (from UniProt O88597 1-448)” the binding (FLAG-STAT3) was “binds”.
“STAT3, endogenous in E14.5 fetal liver cells (from UniProt P42227 1-770)” was tested, and the binding [1] was “binds”.
For “FLAG-Becn1 (FL) (from UniProt O88597 1-448)”, the binding (Myc-STAT3) was “binds”.
